From the supplement of paper PMC10849652
The other results are listed elsewhere or left out. Residues, ends and D or L forms follow the SMILES beside them. *: point of attachment. Cbz = O=C(OCc1ccccc1)*

Sequences of proteins named here, by UniProt entry; tags and fusion partners are left off. A change or cut given only in a name is not applied to a line headed by its entry.
UniProt Q8WWW0: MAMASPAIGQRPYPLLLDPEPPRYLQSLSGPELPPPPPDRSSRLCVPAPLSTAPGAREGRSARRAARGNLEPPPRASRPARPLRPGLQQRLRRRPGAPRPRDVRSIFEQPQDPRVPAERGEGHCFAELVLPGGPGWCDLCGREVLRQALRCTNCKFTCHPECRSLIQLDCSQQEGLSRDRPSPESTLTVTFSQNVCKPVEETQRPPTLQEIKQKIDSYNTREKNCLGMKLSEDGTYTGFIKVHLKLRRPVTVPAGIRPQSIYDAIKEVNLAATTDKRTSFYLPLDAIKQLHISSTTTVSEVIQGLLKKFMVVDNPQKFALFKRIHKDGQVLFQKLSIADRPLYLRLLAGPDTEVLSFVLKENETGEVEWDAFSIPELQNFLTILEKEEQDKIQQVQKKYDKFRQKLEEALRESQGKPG
UniProt O43502: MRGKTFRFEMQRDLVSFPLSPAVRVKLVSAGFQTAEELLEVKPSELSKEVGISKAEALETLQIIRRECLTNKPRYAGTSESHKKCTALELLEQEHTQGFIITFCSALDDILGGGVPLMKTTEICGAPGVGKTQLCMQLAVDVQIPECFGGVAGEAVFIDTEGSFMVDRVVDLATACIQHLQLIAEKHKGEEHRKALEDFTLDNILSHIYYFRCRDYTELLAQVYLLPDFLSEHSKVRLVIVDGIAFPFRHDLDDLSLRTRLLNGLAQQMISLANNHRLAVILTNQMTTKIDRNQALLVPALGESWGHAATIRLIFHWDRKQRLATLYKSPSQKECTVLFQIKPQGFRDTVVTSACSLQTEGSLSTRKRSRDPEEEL
UniProt P62834: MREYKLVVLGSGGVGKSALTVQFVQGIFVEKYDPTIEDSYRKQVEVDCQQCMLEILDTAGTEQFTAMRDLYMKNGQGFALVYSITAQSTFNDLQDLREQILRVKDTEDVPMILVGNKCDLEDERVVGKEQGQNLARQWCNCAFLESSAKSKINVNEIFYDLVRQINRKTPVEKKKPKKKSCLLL
UniProt Q9UL26: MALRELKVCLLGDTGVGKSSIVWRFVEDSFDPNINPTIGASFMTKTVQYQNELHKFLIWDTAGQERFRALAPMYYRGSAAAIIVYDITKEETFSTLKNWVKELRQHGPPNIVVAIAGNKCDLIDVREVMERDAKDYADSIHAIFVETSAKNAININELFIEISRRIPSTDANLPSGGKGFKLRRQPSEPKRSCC
UniProt Q9UI14, whole entry, looked up: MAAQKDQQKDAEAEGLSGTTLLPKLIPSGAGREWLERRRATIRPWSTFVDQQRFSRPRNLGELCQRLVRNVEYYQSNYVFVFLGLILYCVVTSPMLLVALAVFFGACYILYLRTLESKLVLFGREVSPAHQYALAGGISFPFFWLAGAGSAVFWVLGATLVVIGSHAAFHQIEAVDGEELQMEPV
UniProt P61006: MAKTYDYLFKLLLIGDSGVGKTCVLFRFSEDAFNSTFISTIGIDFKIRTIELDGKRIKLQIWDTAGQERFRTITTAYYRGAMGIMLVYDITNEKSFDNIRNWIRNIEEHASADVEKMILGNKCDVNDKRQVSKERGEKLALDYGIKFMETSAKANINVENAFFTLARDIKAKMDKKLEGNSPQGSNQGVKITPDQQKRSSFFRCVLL
UniProt Q9UL25: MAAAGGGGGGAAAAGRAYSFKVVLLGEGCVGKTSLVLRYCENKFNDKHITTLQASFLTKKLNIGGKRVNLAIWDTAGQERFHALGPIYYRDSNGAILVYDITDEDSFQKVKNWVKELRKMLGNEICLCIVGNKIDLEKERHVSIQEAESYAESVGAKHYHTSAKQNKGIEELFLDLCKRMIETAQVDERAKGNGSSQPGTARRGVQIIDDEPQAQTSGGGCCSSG
UniProt P61225: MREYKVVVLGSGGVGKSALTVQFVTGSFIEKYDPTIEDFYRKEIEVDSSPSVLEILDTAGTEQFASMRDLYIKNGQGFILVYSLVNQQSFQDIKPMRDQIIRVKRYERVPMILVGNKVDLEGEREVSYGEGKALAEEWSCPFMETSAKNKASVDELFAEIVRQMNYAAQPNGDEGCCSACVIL
UniProt Q5HYI8: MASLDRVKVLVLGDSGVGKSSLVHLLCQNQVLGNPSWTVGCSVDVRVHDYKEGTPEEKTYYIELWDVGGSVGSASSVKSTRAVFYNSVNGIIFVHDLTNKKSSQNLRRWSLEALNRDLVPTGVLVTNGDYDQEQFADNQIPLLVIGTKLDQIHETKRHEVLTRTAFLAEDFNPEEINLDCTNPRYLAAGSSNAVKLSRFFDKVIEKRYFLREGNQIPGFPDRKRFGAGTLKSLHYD
UniProt Q15286: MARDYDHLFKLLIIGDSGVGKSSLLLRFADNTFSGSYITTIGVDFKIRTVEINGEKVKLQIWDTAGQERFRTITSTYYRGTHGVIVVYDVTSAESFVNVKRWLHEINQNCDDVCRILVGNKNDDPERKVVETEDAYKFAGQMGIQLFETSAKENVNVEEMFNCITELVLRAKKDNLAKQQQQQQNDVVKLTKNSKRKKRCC
UniProt P61020: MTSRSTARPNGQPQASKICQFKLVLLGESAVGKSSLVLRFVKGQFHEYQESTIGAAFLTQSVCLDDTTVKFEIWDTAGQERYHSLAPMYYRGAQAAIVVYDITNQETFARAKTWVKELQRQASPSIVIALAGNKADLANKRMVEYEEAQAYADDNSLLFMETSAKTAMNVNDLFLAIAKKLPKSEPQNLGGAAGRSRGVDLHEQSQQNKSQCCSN
UniProt O60671: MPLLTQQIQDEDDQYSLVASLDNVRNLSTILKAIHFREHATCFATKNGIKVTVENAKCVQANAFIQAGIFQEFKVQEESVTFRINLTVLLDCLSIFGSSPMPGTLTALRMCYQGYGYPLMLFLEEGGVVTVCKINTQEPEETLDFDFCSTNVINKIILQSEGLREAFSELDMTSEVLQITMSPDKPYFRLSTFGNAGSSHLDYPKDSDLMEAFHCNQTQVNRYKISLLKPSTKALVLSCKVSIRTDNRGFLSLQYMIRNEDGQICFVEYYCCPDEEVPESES
UniProt Q5T8P6: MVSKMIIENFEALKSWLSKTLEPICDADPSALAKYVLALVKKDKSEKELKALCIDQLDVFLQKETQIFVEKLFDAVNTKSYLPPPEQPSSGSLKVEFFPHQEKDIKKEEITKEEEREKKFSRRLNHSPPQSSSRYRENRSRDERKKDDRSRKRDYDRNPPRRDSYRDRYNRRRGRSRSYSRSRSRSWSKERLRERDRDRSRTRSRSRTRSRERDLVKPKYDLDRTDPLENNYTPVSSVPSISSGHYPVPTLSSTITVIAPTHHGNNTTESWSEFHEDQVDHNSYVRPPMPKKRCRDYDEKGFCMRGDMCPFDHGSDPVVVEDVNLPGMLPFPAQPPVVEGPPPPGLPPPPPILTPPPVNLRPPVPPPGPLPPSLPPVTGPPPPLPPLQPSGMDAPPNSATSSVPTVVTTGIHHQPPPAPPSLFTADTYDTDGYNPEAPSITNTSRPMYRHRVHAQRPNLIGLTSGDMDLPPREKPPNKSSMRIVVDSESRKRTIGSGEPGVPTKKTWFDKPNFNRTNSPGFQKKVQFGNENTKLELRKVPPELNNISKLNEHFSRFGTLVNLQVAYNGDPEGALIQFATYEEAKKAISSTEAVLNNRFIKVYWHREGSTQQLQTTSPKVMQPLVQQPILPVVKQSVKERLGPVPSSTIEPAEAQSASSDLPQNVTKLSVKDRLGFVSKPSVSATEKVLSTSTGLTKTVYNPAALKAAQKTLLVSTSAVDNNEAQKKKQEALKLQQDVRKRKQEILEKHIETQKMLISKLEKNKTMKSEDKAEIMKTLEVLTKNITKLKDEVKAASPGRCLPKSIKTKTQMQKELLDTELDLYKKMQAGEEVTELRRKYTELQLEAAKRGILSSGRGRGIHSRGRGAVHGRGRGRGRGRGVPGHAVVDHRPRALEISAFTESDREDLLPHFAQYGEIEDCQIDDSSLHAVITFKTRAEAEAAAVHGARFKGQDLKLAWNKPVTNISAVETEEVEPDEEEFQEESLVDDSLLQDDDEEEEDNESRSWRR
UniProt P61106, whole entry, looked up: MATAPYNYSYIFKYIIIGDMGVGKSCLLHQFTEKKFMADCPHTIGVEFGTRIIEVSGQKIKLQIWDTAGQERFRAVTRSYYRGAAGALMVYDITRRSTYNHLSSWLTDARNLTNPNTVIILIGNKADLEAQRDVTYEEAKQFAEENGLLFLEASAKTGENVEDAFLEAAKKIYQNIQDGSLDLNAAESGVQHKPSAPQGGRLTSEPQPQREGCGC
UniProt Q6GYQ0: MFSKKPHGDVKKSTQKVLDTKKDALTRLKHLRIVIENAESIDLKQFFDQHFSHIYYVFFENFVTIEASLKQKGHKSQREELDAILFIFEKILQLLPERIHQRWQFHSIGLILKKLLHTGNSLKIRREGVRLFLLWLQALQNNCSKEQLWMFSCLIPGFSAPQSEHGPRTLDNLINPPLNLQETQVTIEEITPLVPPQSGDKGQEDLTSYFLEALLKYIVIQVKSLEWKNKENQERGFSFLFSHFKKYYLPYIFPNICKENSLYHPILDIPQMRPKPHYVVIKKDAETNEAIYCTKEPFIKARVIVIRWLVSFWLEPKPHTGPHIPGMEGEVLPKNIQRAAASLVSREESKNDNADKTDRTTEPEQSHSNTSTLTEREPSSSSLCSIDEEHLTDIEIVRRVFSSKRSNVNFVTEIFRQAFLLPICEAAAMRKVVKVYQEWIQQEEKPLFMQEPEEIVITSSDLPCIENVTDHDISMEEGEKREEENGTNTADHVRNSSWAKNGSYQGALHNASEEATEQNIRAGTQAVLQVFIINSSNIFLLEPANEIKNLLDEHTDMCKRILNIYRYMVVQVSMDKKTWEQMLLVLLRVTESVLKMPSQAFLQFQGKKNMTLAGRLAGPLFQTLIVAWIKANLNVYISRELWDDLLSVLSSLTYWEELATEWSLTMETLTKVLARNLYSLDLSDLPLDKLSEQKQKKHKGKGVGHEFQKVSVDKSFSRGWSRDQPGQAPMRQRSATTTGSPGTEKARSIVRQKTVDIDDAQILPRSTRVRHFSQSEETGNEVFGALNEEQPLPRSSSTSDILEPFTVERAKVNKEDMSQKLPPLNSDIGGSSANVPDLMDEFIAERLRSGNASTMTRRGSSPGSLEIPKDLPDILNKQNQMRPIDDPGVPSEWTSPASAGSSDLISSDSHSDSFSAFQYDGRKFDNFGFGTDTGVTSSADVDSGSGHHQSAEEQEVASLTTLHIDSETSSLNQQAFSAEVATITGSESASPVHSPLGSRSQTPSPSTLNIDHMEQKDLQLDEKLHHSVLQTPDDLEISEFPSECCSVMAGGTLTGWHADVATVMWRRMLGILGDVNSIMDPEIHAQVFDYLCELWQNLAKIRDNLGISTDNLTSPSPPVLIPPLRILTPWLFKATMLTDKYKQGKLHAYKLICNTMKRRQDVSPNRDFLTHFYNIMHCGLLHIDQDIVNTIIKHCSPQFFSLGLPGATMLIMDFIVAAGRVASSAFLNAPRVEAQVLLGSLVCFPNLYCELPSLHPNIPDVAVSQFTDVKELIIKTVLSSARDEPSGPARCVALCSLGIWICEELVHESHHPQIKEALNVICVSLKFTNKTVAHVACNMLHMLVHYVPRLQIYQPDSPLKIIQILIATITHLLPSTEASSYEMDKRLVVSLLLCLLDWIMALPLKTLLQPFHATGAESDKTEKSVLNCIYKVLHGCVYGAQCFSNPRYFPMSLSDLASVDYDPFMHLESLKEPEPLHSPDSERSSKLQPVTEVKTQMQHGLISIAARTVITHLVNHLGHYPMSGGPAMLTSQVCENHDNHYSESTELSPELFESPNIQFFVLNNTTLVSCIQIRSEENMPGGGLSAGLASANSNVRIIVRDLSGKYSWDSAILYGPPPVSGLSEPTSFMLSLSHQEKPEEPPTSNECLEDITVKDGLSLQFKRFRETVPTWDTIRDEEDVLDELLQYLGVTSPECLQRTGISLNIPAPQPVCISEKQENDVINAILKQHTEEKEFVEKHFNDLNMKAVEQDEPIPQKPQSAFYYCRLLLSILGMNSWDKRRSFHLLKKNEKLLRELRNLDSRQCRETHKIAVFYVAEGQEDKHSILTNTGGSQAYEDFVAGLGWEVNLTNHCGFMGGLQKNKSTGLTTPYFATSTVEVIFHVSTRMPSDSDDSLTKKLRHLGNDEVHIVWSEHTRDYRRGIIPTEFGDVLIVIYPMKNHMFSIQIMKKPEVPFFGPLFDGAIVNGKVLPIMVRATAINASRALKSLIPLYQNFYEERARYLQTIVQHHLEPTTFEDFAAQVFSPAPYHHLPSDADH
UniProt P78406: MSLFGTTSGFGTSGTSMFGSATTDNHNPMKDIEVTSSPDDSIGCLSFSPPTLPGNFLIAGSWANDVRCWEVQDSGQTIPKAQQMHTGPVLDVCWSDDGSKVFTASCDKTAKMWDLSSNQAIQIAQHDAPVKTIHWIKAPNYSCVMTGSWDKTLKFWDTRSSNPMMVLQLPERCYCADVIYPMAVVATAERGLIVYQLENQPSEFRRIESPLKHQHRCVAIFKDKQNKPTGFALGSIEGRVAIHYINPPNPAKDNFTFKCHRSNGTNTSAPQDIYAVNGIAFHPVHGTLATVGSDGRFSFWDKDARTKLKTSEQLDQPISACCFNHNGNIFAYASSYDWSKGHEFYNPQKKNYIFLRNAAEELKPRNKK

Columns and labels:
Assay in all cases: log2 fold change, soluble protein after heating vs DMSO (PISA); higher = thermal stabilisation; K562 cells, 10 uM, 30 min; active = over 0.2 and 3.5 SD of the protein, either way, in both replicates (recomputed)
[1] = compound: C1COCCN1CCN2C3=CC=CC=C3N=C2NC(=O)C4=CC(=CC=C4)[N+](=O)[O-] [IRAK-1-4 Inhibitor I]
In short: (§1)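 K562 cells at 2×10^6 cells/mL were given 10 μM compound for 30 min. Aliquots then went through 3 min of heating across 48°C-58°C, were pooled, and were extracted in PBS with 0.5% NP-40 at 4°C, and the supernatant after 21,000xg for 90 min was quantified by TMTpro 16plex LC-MS/MS with channel sums equalised. Thermal stability relative to control samples, from duplicates, is given as log2 fold change.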

[2] = compound: C=CC(=O)N1CCC[C@@H](n2nc(-c3ccc(Oc4ccccc4)cc3)c3c(N)ncnc32)C1 [ibrutinib]
In short: as §1

[3] = compound: CC(=O)c1cnc2ccc(-c3cc(Cl)c(O)c(Cl)c3)nc2c1N[C@H]1CC[C@H](CN(C)C)CC1
In short: as §1

[4] = compound: CC(C)(C)Cn1c(N)nc2ccc(-c3[nH]c(C(C)(C)C)nc3-c3ccc(F)cc3)nc21 [ralimetinib]
In short: as §1

[5] = compound: CC(C)(O)CC(=O)NCCn1ccc2ncnc(Nc3ccc(Oc4cccc(C(F)(F)F)c4)c(Cl)c3)c21
In short: as §1

[6] = compound: CC(C)C1=C2N=C(C=C(N2N=C1)NCC3=CC=CC=C3)NCCCCCCN
In short: as §1

[7] = compound: CC(C)C[C@@H](C=O)NC(=O)[C@H](CC(C)C)NC(=O)[C@H](CC(C)C)NC(=O)OCc1ccccc1
In short: as §1

[8] = compound: CC(C)N(C[C@H]1O[C@@H](n2cnc3c(N)ncnc32)[C@H](O)[C@@H]1O)[C@H]1C[C@@H](CCc2nc3cc(C(C)(C)C)ccc3[nH]2)C1 [pinometostat]
In short: as §1

[9] = compound: CC1=C(C(CC(=O)N1)C2=CC=C(C=C2)C(F)(F)F)C(=O)NC3=C(C=C4C(=C3)C=NN4)F
In short: as §1

[10] = compound: CC1=C(C2=C(C=C1)C(=O)C3=CC=CC=C3N2CCCN)C
In short: as §1

Target	log2 fold change [1]	log2 fold change [2]	log2 fold change [3]	log2 fold change [4]	log2 fold change [5]	log2 fold change [6]	log2 fold change [7]	log2 fold change [8]	log2 fold change [9]	log2 fold change [10]
RASSF5 (UniProt Q8WWW0)	inactive: 0	inactive: -0.062	inactive: 0.018	inactive: 0.179	inactive: 0.067	inactive: 0.076	inactive: -0.124	inactive: 0.002	inactive: 0.025	inactive: -0.042
RAD51C (UniProt O43502)	inactive: 0.024	inactive: -0.05	inactive: 0.018	inactive: 0.028	inactive: -0.038	inactive: 0.018	inactive: 0.02	inactive: 0.014	inactive: -0.004	inactive: -0.004
RAB29 (UniProt O14966)	inactive: 0.019	inactive: 0.064	inactive: -0.025	inactive: -0.188	inactive: -0.005	inactive: 0.071	inactive: 0.108	inactive: -0.006	inactive: 0.009	inactive: 0.058
RAP1A (UniProt P62834)	inactive: 0.054	inactive: -0.006	inactive: 0.002	inactive: 0.109	inactive: -0.006	inactive: 0.131	inactive: -0.036	inactive: -0.06	inactive: -0.059	inactive: 0.014
RAB3IP (UniProt Q96QF0)	inactive: 0.096	inactive: 0.007	inactive: -0.015	inactive: 0.021	inactive: -0.137	inactive: 0.058	inactive: 0.045	inactive: -0.011	inactive: -0.078	inactive: 0.008
RAB22A (UniProt Q9UL26)	inactive: 0.042	inactive: 0.021	inactive: -0.022	inactive: -0.054	inactive: -0.004	inactive: 0.085	inactive: 0.007	inactive: -0.004	inactive: -0.002	inactive: 0.034
RABAC1 (UniProt Q9UI14)	inactive: 0.117	inactive: 0.053	inactive: 0.071	inactive: -0.028	inactive: 0.127	inactive: 0.015	inactive: 0.082	inactive: 0.051	inactive: 0.055	inactive: -0.058
RAB8A (UniProt P61006)	inactive: 0.123	inactive: 0.046	inactive: -0.011	inactive: -0.109	inactive: -0.032	inactive: 0.055	inactive: 0.068	inactive: -0.005	inactive: 0.019	inactive: 0.089
RAB20 (UniProt Q9NX57)	inactive: 0.001	inactive: 0.002	inactive: -0.012	inactive: -0.042	inactive: 0	inactive: 0.112	inactive: -0.011	inactive: -0.004	inactive: 0.004	inactive: 0.04
RBM12 (UniProt Q9NTZ6)	inactive: -0.042	inactive: -0.018	inactive: -0.135	inactive: -0.037	inactive: -0.145	inactive: -0.237	inactive: 0.009	inactive: -0.043		inactive: -0.007
RAB21 (UniProt Q9UL25)	inactive: 0.019	inactive: 0.003	inactive: 0.014	inactive: -0.036	inactive: -0.014	inactive: -0.032	inactive: -0.052	inactive: -0.013	inactive: 0.004	inactive: 0.04
RAP2B (UniProt P61225)	inactive: -0.013	inactive: 0.044	inactive: -0.08	inactive: -0.007	inactive: -0.024	inactive: 0.088	inactive: -0.014	inactive: -0.086	inactive: -0.031	inactive: 0.047
RABL3 (UniProt Q5HYI8)	inactive: 0.027	inactive: -0.012	inactive: -0.038	inactive: -0.044	inactive: -0.062	inactive: -0.122	inactive: 0.019	inactive: -0.024	inactive: -0.043	inactive: 0.024
RAB35 (UniProt Q15286)	inactive: 0.037	inactive: 0.031	inactive: 0.018	inactive: -0.063	inactive: 0.025	inactive: -0.022	inactive: 0.002	inactive: 0.008	inactive: 0.005	inactive: 0.024
RAB5B (UniProt P61020)	inactive: 0.028	inactive: 0.02	inactive: -0.012	inactive: 0.111	inactive: -0.083	inactive: 0.099	inactive: -0.039	inactive: -0.043	inactive: 0.023	inactive: 0.014
RAVER1 (UniProt E9PAU2)	inactive: -0.062	inactive: 0.033	inactive: -0.308	inactive: 0.082	inactive: -0.263	inactive: -0.409	inactive: -0.042	inactive: 0.052		inactive: -0.694
RACK1 (UniProt D6RF23)	inactive: -0.148	inactive: -0.139	inactive: -0.17	inactive: -0.2	inactive: -0.065	inactive: -0.115	inactive: 0.128	inactive: -0.005		inactive: 0.058
RAB43 (UniProt Q86YS6)	inactive: 0.099	inactive: 0.026	inactive: -0.008	inactive: 0.084	inactive: -0.029	inactive: 0.05	inactive: 0.193	inactive: 0.01	inactive: 0.063	inactive: -0.107
RAD1 (UniProt O60671)	inactive: 0.014	inactive: 0.003	inactive: -0.007	inactive: -0.048	inactive: 0.024	inactive: 0.016	inactive: -0.056	inactive: -0.066	inactive: 0.018	inactive: -0.079
RBM27 (UniProt Q9P2N5)	inactive: -0.123	inactive: 0.023	active: -0.338	inactive: -0.045	inactive: -0.063	active: -0.479	inactive: 0.042	inactive: 0.028		inactive: 0.05
RB1CC1 (UniProt Q8TDY2)	inactive: 0.092	inactive: 0.094	inactive: 0.045	inactive: 0.089	inactive: -0.11	inactive: 0.045	inactive: 0.03	inactive: -0.023		inactive: 0.041
RBM26 isoform 2 (UniProt Q5T8P6)	inactive: -0.086	inactive: 0.032	inactive: -0.179	inactive: -0.021	inactive: -0.16	inactive: -0.295	inactive: 0.024	inactive: -0.022		inactive: 0.06
RAB14 (UniProt P61106)	inactive: 0.009	inactive: 0.011	inactive: -0.007	inactive: 0.046	inactive: 0.006	inactive: 0.057	inactive: -0.045	inactive: -0.058	inactive: -0.024	inactive: 0.023
RAB3GAP2 (UniProt Q9H2M9)	inactive: -0.079	inactive: -0.016	inactive: -0.031	inactive: 0.03	inactive: 0	active: -0.26	inactive: 0.026	inactive: 0.115		inactive: -0.016
RAB6B (UniProt Q9NRW1)	inactive: 0.043	inactive: 0.02	inactive: 0.057	inactive: 0.058	inactive: 0.05	inactive: 0.118	inactive: -0.058	inactive: -0.068	inactive: -0.037	inactive: 0.015
RBIS (UniProt Q8N0T1)	inactive: -0.038	inactive: 0.019	inactive: -0.109	inactive: -0.021	inactive: 0.083	inactive: -0.001	active: 0.281	inactive: 0.044		active: -0.478
RABEP1 (UniProt Q15276)	inactive: 0.04	inactive: -0.018	inactive: 0.02	inactive: 0.079	inactive: -0.02	inactive: 0.004	inactive: -0.013	inactive: -0.001	inactive: -0.068	inactive: 0.027
RALGAPA1 isoform 6 (UniProt Q6GYQ0)	inactive: -0.088	inactive: 0.013	inactive: -0.05	inactive: -0.059	inactive: -0.191	inactive: -0.04	inactive: 0.002	inactive: 0.059	inactive: -0.064	inactive: -0.12
RAE1 (UniProt P78406)	inactive: -0.086	inactive: -0.077	inactive: -0.05	inactive: 0.085	inactive: 0.022	inactive: -0.144	inactive: -0.006	inactive: 0.081	inactive: -0.061	inactive: -0.004
RAD23B (UniProt P54727)	inactive: 0.059	inactive: 0.016	inactive: -0.004	inactive: -0.086	inactive: 0.036	inactive: 0.084	inactive: -0.049	inactive: -0.017	inactive: 0.031	inactive: -0.039

Some of the entries so far, with bars between the fields:
Target | log2 fold change [1] | log2 fold change [2] | log2 fold change [3] | log2 fold change [4] | log2 fold change [5] | log2 fold change [6] | log2 fold change [7] | log2 fold change [8] | log2 fold change [9] | log2 fold change [10]
RAB3GAP2 (UniProt Q9H2M9) | inactive: -0.079 | inactive: -0.016 | inactive: -0.031 | inactive: 0.03 | inactive: 0 | active: -0.26 | inactive: 0.026 | inactive: 0.115 |  | inactive: -0.016
RABEP1 (UniProt Q15276) | inactive: 0.04 | inactive: -0.018 | inactive: 0.02 | inactive: 0.079 | inactive: -0.02 | inactive: 0.004 | inactive: -0.013 | inactive: -0.001 | inactive: -0.068 | inactive: 0.027
